Test [1] deals with hypoxia-inducible factor-1α (rat, endogenous in H9c2 cells) (rat (endogenous in H9c2)) (UniProt O35800). Put plainly: co-IP; lysates of hPASMCs and H9c2 cells (IP lysis buffer) incubated with anti-HIF-1α antibody (ab179483) or normal rabbit IgG overnight at 4 °C, Protein A/G agarose beads 2 h at 4 °C; western blotting for HIF-1α, CD36 and PI3K p85α. (Immunoblotting shows a protein as a band on a membrane.)

The chains behind the UniProt entries cited, without tags or fusion partners.
UniProt O35800: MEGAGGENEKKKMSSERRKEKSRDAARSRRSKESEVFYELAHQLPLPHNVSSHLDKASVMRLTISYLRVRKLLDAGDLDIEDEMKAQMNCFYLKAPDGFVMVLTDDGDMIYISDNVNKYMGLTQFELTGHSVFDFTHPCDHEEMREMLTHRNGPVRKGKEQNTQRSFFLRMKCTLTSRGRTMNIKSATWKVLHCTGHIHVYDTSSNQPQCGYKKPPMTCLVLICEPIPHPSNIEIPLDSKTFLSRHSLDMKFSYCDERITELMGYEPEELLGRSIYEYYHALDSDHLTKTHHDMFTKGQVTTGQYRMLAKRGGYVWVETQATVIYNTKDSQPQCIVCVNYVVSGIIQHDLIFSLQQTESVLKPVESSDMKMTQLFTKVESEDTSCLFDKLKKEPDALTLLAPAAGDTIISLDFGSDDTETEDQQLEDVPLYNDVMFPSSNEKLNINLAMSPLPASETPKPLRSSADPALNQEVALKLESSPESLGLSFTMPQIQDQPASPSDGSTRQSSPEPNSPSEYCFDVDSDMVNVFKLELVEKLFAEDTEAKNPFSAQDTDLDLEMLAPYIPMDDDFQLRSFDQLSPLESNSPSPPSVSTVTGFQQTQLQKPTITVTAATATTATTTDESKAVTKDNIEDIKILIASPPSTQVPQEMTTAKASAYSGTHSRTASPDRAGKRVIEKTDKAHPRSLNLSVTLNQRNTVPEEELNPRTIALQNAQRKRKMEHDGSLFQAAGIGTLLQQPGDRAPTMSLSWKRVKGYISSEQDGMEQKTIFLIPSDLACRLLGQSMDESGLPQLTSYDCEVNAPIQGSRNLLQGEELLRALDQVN
UniProt Q16665: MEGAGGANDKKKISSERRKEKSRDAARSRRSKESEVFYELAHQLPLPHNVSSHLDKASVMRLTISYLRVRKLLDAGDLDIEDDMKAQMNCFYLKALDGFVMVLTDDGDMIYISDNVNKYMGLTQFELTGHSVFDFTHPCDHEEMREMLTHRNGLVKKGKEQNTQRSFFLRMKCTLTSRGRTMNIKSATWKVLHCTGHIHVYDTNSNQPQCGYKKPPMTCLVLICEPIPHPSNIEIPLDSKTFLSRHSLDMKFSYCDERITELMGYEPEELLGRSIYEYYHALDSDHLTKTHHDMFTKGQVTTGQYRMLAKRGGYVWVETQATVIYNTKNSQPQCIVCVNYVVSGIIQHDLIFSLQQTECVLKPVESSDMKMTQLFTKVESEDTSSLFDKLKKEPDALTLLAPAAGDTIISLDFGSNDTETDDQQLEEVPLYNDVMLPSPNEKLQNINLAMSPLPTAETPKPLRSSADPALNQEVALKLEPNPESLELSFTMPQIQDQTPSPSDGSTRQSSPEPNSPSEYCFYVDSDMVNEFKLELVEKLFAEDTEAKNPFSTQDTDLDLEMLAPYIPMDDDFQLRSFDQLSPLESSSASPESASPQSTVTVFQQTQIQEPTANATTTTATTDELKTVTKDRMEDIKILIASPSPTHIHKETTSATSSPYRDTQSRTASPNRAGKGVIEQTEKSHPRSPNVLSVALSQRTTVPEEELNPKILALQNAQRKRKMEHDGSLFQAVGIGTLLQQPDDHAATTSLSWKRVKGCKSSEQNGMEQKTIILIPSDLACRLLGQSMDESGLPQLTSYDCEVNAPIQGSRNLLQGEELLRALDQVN
UniProt P27986: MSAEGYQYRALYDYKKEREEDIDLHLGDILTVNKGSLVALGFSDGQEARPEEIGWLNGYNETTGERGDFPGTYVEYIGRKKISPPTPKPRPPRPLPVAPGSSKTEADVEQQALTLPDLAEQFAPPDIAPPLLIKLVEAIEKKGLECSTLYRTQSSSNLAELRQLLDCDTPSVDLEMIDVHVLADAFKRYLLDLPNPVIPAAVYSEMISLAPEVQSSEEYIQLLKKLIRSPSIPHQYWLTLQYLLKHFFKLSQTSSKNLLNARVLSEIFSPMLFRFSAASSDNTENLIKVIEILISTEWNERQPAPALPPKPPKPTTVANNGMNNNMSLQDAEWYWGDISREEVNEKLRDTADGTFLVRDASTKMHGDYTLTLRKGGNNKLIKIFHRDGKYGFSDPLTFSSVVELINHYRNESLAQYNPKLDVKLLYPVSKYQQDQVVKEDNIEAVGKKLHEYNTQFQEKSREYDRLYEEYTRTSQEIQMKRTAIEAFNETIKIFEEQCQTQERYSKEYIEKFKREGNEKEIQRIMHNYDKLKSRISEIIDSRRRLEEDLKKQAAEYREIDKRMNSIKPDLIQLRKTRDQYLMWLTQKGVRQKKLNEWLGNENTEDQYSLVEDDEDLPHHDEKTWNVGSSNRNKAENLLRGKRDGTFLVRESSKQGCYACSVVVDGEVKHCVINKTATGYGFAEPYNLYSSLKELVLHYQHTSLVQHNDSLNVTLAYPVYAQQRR
UniProt Q07969: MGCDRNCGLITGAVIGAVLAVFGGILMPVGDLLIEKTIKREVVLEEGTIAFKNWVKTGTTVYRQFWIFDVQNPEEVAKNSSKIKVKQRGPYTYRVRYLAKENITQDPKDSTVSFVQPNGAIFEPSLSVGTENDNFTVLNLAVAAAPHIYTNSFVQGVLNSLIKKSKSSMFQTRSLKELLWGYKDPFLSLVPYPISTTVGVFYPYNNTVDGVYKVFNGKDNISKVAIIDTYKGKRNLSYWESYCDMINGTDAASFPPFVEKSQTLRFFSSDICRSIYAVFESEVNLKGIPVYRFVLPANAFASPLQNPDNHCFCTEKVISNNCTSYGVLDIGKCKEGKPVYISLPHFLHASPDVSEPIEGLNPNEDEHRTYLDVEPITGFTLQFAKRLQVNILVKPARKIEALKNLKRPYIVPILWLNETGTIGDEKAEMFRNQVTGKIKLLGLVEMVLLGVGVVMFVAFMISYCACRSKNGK
UniProt P16671: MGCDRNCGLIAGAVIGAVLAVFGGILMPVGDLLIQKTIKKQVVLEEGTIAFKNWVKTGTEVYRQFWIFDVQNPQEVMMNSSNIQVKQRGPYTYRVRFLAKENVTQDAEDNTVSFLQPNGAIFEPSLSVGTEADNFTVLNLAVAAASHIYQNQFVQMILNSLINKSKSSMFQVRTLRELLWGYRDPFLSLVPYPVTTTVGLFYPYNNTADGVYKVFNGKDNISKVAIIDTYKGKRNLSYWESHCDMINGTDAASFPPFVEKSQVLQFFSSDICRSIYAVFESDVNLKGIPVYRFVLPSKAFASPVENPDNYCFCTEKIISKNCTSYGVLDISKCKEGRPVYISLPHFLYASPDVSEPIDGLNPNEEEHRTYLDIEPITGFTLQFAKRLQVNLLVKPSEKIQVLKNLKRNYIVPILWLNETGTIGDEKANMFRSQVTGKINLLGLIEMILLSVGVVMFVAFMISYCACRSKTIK

Test [2] deals with hypoxia-inducible factor-1α (human, endogenous in hPASMCs) (human (endogenous in hPASMCs)) (UniProt Q16665). The description is as above.

Results are given in words; binding and its absence hold for the method and conditions named. In cells and extracts the contact can be indirect. Some binding calls cover weakened binding; strength is not graded here.

“phosphatidylinositol 3-kinase (PI3K) p85α (rat, endogenous in H9c2 cells) (from UniProt Q63787-1 1-724)”: the binding result in test [1] is listed as “binds”.
Consider “phosphatidylinositol 3-kinase (PI3K) p85α (human, endogenous in hPASMCs) (from UniProt P27986 1-724)”, for which the binding result in test [2] is listed as “binds”.
Take “CD36, fatty acid transporter (rat, endogenous in H9c2 cells) (from UniProt Q07969 1-472)”: the binding entry in test [1] is reported as “binds”.
As to “CD36, fatty acid transporter (human, endogenous in hPASMCs) (from UniProt P16671 1-472)”, the binding result in test [2] was “binds”.

(Values after article PMC11552344.)
